Values of other authors in patent publication US8679539B2, “Drug-loaded poly (alkyl-cyanoacrylate) nanoparticles and process for the preparation thereof” (Tong Shen Enterprise Co., Ltd., priority 2007, dated 2014).

For `CC(=O)O[C@H]1C(=O)[C@@]2(C)[C@H]([C@H](OC(=O)c3ccccc3)[C@]3(O)C[C@H](OC(=O)[C@H](O)[C@@H](NC(=O)c4ccccc4)c4ccccc4)C(C)=C1C3(C)C)[C@]1(OC(C)=O)CO[C@@H]1C[C@@H]2O` [Paclitaxel], the Water solubility is listed as “less than 3 ng/ml”.
